This assay can be described thus: qHTS Assay for Lipid Storage Modulators in Drosophila S3 Cells.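 On cell number change: cells counted by Cell Tracker Red CMTPX staining in the red channel.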 The settings on record: BODIPY lipid droplet fluorescence, 18-24 h; for cell number change: measured here: cell count max response, cells fed with added oleic acid. An outline of the steps: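 Drosophila S3 cells got compounds at several concentrations plus oleic acid (400 uM solution). Laser-scanning cytometry with 488 nm excitation read lipid droplets at 500-530 nm and cells at 575-640 nm. Percent activity was relative to 20 uM Triacsin C.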
A general note: Quantitative high-throughput screening tests each substance at several concentrations.

[1] abbreviates: measured here: cell number channel AC50, cells fed with added oleic acid.
Where [2] appears, read: measured here: lipid fluorescence (Fed channel) AC50, cells fed with added oleic acid.

The structures appear in SMILES notation. Some of the results follow. These are further read-outs of the screen, such as a control signal, another cell line or another target. No call is given for them. Most of these compounds were active or inconclusive in the main read-out, so they are no random draw. The note in brackets gives the kind of curve behind each potency; many fits are weak.

A word on the AC50: it is the midpoint of the concentration-response curve, whichever way the signal moves. With `COc1ccc(CCNC(=O)CCCOc2ccc(Cl)cc2)cc1OC`, the cell number change is -36%. Besides, the concentration at half-maximal activity (AC50) under setting [1] was 14.6 µM [falling, single point]. Further, the AC50 under setting [2] was 0.0146 µM [falling, full curve, poor fit].

Regarding `COc1cc(Cl)c(C)cc1NC(=O)CN1CCN(C(=O)C2CC2)CC1`, the cell number change was -24.1%. Also, the AC50 under setting [1] is 2.59 µM [falling, full curve, poor fit]. Further, the AC50 under setting [2] is 2.31 µM [falling, full curve, poor fit].

Turning to `CCOc1ccc2cc(C#N)c(SCC(=O)N3CCOCC3)nc2c1`, the concentration at half-maximal activity (AC50) under setting [1] is 6.51 µM [rising, single point].

On to `COCCn1c(=S)[nH]c2cc(C(=O)N3CCN(c4cccc(Cl)c4)CC3)ccc2c1=O`, for which the cell number change is -4.78%. Also, under setting [2], the AC50 is 29.1 µM [falling, single point].

With `c1ccc(-c2noc(CN3CCc4sccc4C3)n2)cc1`, the cell number change was 28.3%. For the same compound, the AC50 under setting [2] is 29.1 µM [rising, single point].

On to `O=C(O)C1CC1c1ccc(Br)cc1` (stereo not given), for which the AC50 under setting [2] was 6.51 µM [falling, single point].

With `CN(C(=O)CC1C(=O)NCCN1Cc1cccc(C(F)(F)F)c1)C1CCOCC1` (stereo not given), the cell number change is -13.9%. Also, under setting [1], the AC50 is 6.51 µM [falling, single point]. For the same compound, the AC50 under setting [2] was 0.13 µM [falling, full curve, poor fit].

On to `O=C(NCc1ccccc1)NC(=O)c1ccccc1`, for which the cell number change is -7.5%. The half-maximal activity concentration (AC50) under setting [1] was 6.51 µM [falling, single point]. Under setting [2], the AC50 is 3.26 µM [rising, full curve, poor fit].

With `C=CCc1cccc(C2Nc3ccccc3C(=O)N2O)c1O` (stereo not given), the cell number change was -12.9%. Further, the AC50 under setting [1] is 0.116 µM [falling, full curve, poor fit].

With `O=C(CCC(=O)Nc1ccccc1)NNS(=O)(=O)c1ccccc1[N+](=O)[O-]`, the cell number change amounted to 48.6%. In addition, the AC50 under setting [1] was 32.6 µM [rising, single point]. Further, the AC50 under setting [2] is 29.1 µM [rising, single point].

For the compound `Cc1ccc(O)c(-c2cc(C(=O)NCc3ccccc3)[nH]n2)c1`, the cell number change is 8.08%. The concentration at half-maximal activity (AC50) under setting [2] is 5.8 µM [rising, full curve].

Turning to `O=C(c1ccoc1)N1CCC2(CC1)Oc1ccc(Cl)cc1C(=O)C21CC(c2ccc(Cl)cc2)=NO1` (stereo not given), the cell number change worked out at 12.8%. In addition, the AC50 under setting [2] was 14.6 µM [rising, single point].

Take `COCCN(C(=O)COC(=O)CCCOc1ccccc1)c1c(N)n(Cc2ccccc2)c(=O)[nH]c1=O`: the cell number change is 39.5%.

On to `COc1ccc(Cc2n[nH]c(=S)n2N)cc1OC`, for which the cell number change came out at 13.4%.

With `O=C(Oc1ccc2c(c1)CCC2)N1CCOCC1`, the cell number change worked out at 1.87%. Moreover, the AC50 under setting [2] was 23.1 µM [falling, single point].

Take `COc1ccc(N(CC(=O)N2CCOCC2)S(C)(=O)=O)c(OC)c1`: the cell number change was -2.1%. Besides, under setting [2], the AC50 was 29.1 µM [rising, single point].

With `O=C(OCCCOc1ccc(F)cc1)c1ccc(O)cc1O`, the cell number change was determined as 5.28%.

Turning to `CC1CCN(C(=O)Cn2ncc3c4ccccc4n(C)c3c2=O)CC1`, the cell number change was found to be 17.6%. Besides, the AC50 under setting [2] is 16.4 µM [rising, single point].

With `Cc1ccc(S(=O)(=O)/N=C2/C=C(C3C(=O)CC(C)(C)CC3=O)C(=O)c3ccccc32)cc1`, the cell number change was -86.7%. In addition, the AC50 under setting [2] was 4.61 µM [falling, single point].

For `CCCc1cc(=O)n(-c2nc3ccccc3s2)[nH]1`, the cell number change is -33%. For the same compound, under setting [1], the AC50 was 0.184 µM [falling, full curve, poor fit].

`CC1=NN(c2ccccc2)C(=O)/C1=C\N1CC(C)OC(C)C1` (stereo not given): the cell number change was 30.1%. Further, the AC50 under setting [1] was 18.4 µM [rising, single point]. The AC50 under setting [2] is 18.4 µM [rising, single point].

As for `CC(C)CCNC(=O)c1c[nH]c2ccc(S(=O)(=O)N3CCC4(CC3)OCCO4)cc2c1=O`, the cell number change turned out to be 9.74%. Moreover, the AC50 under setting [2] is 0.731 µM [rising, full curve, poor fit].

Regarding `COc1cc(/C=N/n2c(C)nc3ccccc3c2=O)ccc1O`, the cell number change stood at 14.9%.

Turning to `CCCCn1c(-c2csc3c2CCC(C)C3)n[nH]c1=S` (stereo not given), the cell number change is -61.8%. In addition, the half-maximal activity concentration (AC50) under setting [1] is 14.6 µM [falling, partial curve]. For the same compound, under setting [2], the AC50 was 11.6 µM [falling, partial curve].

On to `CCCCOC(=O)C1=C(C)Nc2ncnn2C1c1cccc(OC)c1` (stereo not given), for which the cell number change was -31.8%. For the same compound, the AC50 under setting [1] was 29.1 µM [falling, single point].

Consider `O=c1c2ccc(Cl)cc2nc(-c2ccc([N+](=O)[O-])cc2)n1O`, for which the cell number change was -49.4%. Moreover, the AC50 under setting [1] was 29.1 µM [falling, single point].

In the case of `C/C(=N\N=C\c1ccccc1)c1nnn(-c2nonc2N)c1C`, the cell number change worked out at 29.2%. For the same compound, the AC50 under setting [2] is 32.6 µM [rising, partial curve, poor fit].

For the compound `CC(=O)N1CCc2c(sc(NC(=O)Cc3ccc(C)cc3C)c2C#N)C1`, the cell number change came out at 36.6%. In addition, under setting [1], the AC50 was 18.4 µM [rising, single point].

Regarding `Cc1cc2c(c(=O)n1Cc1ccccc1)C1O[C@](CCCCN3C(=O)c4ccccc4C3=O)(Cc3cc(C#N)ccc31)O2`, the cell number change was 19.8%.

As to `COC(=O)C(C(=O)OC)N1C(=O)CCC1=O`, the cell number change was -226%. The AC50 under setting [1] is 29.1 µM [falling, partial curve]. Moreover, the AC50 under setting [2] is 25.9 µM [falling, partial curve].

As for `Cc1ccc(F)cc1NC(=O)CCNC(=O)c1ccc([N+](=O)[O-])cc1`, the cell number change was 14.1%. Moreover, the AC50 under setting [2] is 6.51 µM [falling, single point].

As for `CC(C)C(=O)Nc1ccc(Cc2ccc(NC(=O)C(C)C)c(O)c2)cc1O`, the cell number change amounted to 1.98%. Besides, under setting [1], the AC50 is 6.51 µM [falling, single point].

Regarding `O=C(O)/C=C/C(=O)N1CCN(c2cccc(Cl)c2)CC1`, the cell number change is 34.4%. Further, under setting [1], the AC50 is 16.4 µM [rising, single point].

Take `COc1ccc(S(=O)(=O)NCC(=O)N(CC(=O)NCC2CCCO2)c2c(C)cccc2C)cc1` (stereo not given): the cell number change came out at 47.5%. Besides, the AC50 under setting [1] is 20.6 µM [rising, single point].

Regarding `Cc1cccc(C(C)C)c1NC(=O)Cc1ccc(S(=O)(=O)N2CCOCC2)s1`, the cell number change was -28.7%. Moreover, under setting [2], the concentration at half-maximal activity (AC50) is 2.06 µM [falling, full curve].

Take `CCOc1ccc(NC(=O)C2CCN(S(=O)(=O)c3c(C)noc3C)CC2)cc1`: the AC50 under setting [2] was 3.66 µM [rising, partial curve].

As for `COc1ccc(N(CC(=O)NCCC2=CCCCC2)S(C)(=O)=O)cc1OC`, the cell number change is -26.9%. Besides, the half-maximal activity concentration (AC50) under setting [1] is 0.82 µM [falling, full curve, poor fit]. Also, the half-maximal activity concentration (AC50) under setting [2] is 0.651 µM [falling, full curve, poor fit].

Source of the values: PubChem BioAssay AID2685 (National Center for Advancing Translational Sciences (NCATS), 2010).
